Measurements taken from US5962634A, “IgE antagonists” (Thomas Jefferson University, priority 1997, dated 1999).
Part of at least one peptide drawing is inferred or uncertain, most often the ends. Where a SMILES comes first, the peptide text is derived from it. Bridges are numbered along the chain shown (N, C = ends). [ ]: non-standard residue; d: D form.

Tested on: GVHD in DBA/2 recipients of B10.D2 CD4+ T cells
Experiment: In vivo GVHD model: irradiated DBA/2 recipients of B10.D2 CD4+ T cells
Design: species or system mice
Settings: DBA/2 recipients of 2×10^6 B10.D2 CD4+ T cells, 0.5 mg i.v. on days 0 and 3

For `CC[C@H](C)[C@@H]1NC(=O)[C@@H](N)CSSC[C@H](C(=O)O)NC(=O)[C@H](Cc2ccc(O)cc2)NC(=O)[C@H](CCCCN)NC(=O)[C@H](CC(C)C)NC(=O)[C@H](C)NC(=O)[C@H](CCC(=O)O)NC(=O)CNC(=O)[C@H](CC(=O)O)NC(=O)[C@H](CCCCN)NC(=O)[C@H](Cc2ccc(O)cc2)NC(=O)[C@H](Cc2ccc(O)cc2)NC1=O` [D amino acid peptide #1, C-I-Y-Y-K-D-G-E-A-L-K-Y-C^D] (H-CIYYKDGEALKY[dC]-OH; disulfide 1-13), the incidence of survival (experiment ended at 80 days, untreated group 83% lethal GVHD) was 67% and the median survival time (untreated group 15 days, p=0/04) was “greater than 80 days”.
